From US8828401B2 (Pfizer Inc., priority 2011, dated 2014)

Test: general procedure: solution-phase peptide synthesis; HATU

## N,2-dimethylalanyl-N-[(3R,4S,5S)-3-methoxy-1-{(2S)-2-[(1R,2R)-1-methoxy-3-{[(2S)-1-methoxy-1-oxo-3-phenylpropan-2-yl]amino}-2-methyl-3-thioxopropyl]pyrrolidin-1-yl}-5-methyl-1-oxoheptan-4-yl]-N-methyl-L-valinamide
Late stage modification step
  step yield: 85%

## 2-methylalanyl-N-[(3R,4S,5S)-3-methoxy-1-{(2S)-2-[(1R,2R)-1-methoxy-3-{[(2S)-1-methoxy-1-oxo-3-phenylpropan-2-yl]amino}-2-methyl-3-oxopropyl]pyrrolidin-1-yl}-5-methyl-1-oxoheptan-4-yl]-N-methyl-L-valinamide
Late stage modification step
  step yield: 65%

## N-[(3R,4S,5S)-1-{(2S)-2-[(1R,2R)-3-{[2-(cyclohepta-2,4,6-trien-1-yl)ethyl]amino}-1-methoxy-2-methyl-3-oxopropyl]pyrrolidin-1-yl}-3-methoxy-5-methyl-1-oxoheptan-4-yl]-N˜2˜-{[(3R)-3-fluoropyrrolidin-3-yl]carbonyl}-N-methyl-L-valinamide
Late stage modification step, HPLC Protocol T
  final HPLC purity: 84%
Late stage modification step, over two steps
  step yield: 20% over two steps

## N-[(9H-fluoren-9-ylmethoxy)carbonyl]-N,2-dimethylalanyl-N-[(3R,4S,5S)-3-methoxy-1-{(2S)-2-[(1R,2R)-1-methoxy-2-methyl-3-oxo-3-(pentafluorophenoxy)propyl]pyrrolidin-1-yl}-5-methyl-1-oxoheptan-4-yl]-N-methyl-L-valinamide
Late stage modification step
  step yield: 92%

## 2-methylalanyl-N-[(3R,4S,5S)-3-methoxy-1-{(2S)-2-[(1R,2R)-1-methoxy-2-methyl-3-oxo-3-{[(1-phenylcyclopropyl)methyl]amino}propyl]pyrrolidin-1-yl}-5-methyl-1-oxoheptan-4-yl]-N-methyl-L-valinamide
Late stage modification step
  step yield: 83%

## (2S)-N-[(2S)-1-{[(3R,4S,5S)-1-{(2S)-2-[(1R,2R)-3-{[2-(cyclohepta-2,4,6-trien-1-yl)ethyl]amino}-1-methoxy-2-methyl-3-oxopropyl]pyrrolidin-1-yl}-3-methoxy-5-methyl-1-oxoheptan-4-yl](methyl)amino}-3-methyl-1-oxobutan-2-yl]
Late stage modification step
  step yield: 89% yield
Late stage modification step, HPLC Protocol U, hydrochloride salt
  crude HPLC purity: 91%

## methyl N-{(2R,3R)-3-[(2S)-1-{(3R,4S,5S)-4-[(N-{[(2S)-1-(tert-butoxycarbonyl)-2-methylpiperidin-2-yl]carbonyl}-L-valyl)(methyl)amino]-3-methoxy-5-methylheptanoyl}pyrrolidin-2-yl]-3-methoxy-2-methylpropanoyl}-L-phenylalaninate
Coupling step
  step yield: 39%

## 2-methylalanyl-N-[(3R,4S,5S)-1-{(2S)-2-[(1R,2R)-3-{[(1S)-1-carboxy-2-phenylethyl]amino}-1-methoxy-2-methyl-3-thioxopropyl]pyrrolidin-1-yl}-3-methoxy-5-methyl-1-oxoheptan-4-yl]-N-methyl-L-valinamide, hydrochloride salt
Late stage modification step, hydrochloride salt
  step yield: 71%
